# Results from article PMC8325119, “A Novel Class of Functionalized Synthetic Fluoroquinolones with Dual Antiproliferative - Antimicrobial Capacities” (Asian Pacific Journal of Cancer Prevention : APJCP, 2021).
# Tested on: Escherichia coli (E. coli) ATCC 25922
# Test: Quantitative antimicrobial assessment (MIC) against E. coli
# Type: cell-based
# Conditions: ATCC25922, Gram negative
compound,measurement,value
"O=C(O)c1cn(C2CC2)c2cc(N3CCNCC3)c(F)cc2c1=O [ciprofloxacin, reference compound]",MIC,0.0278 µM
